In the supplement of paper PMC7661543:
± gives the standard deviation of the averaged measurements. Differences between knockout arms are mostly noise.

Tested on: BT-20
Assay: relative cell number vs DMSO control (72 h) (% of DMSO); higher = less growth inhibition (more cells)
Procedure: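 QMAP-Seq: a pool of 5 breast cancer cell lines (ZR-75-1, SKBR3, HCC-38, MDA-MB-231, BT-20), each carrying 12 doxycycline-inducible Cas9 sgRNA perturbations (11 knockouts plus non-targeting sgNT), was treated with compounds for 72 h at four 10-fold doses (10 nM-10 uM or 1 nM-1 uM range). Barcodes were amplified and sequenced, and cell number was interpolated from 293T spike-in standard curves. The result is expressed as % of the median of DMSO wells. Two biological replicates.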

[1] = sgRNA knockout: sgATF3, 1000 nM
[2] = sgRNA knockout: sgATF3, 10000 nM
[3] = sgRNA knockout: sgATF4, 1000 nM
[4] = sgRNA knockout: sgATF4, 10000 nM
[5] = sgRNA knockout: sgATF6, 1000 nM
[6] = sgRNA knockout: sgATF6, 10000 nM
[7] = sgRNA knockout: sgATG7, 1000 nM
[8] = sgRNA knockout: sgATG7, 10000 nM
[9] = sgRNA knockout: sgERN1, 1000 nM
[10] = sgRNA knockout: sgERN1, 10000 nM
[11] = sgRNA knockout: sgHSF1, 1000 nM
[12] = sgRNA knockout: sgHSF1, 10000 nM
[13] = sgRNA knockout: sgHSF2, 1000 nM
[14] = sgRNA knockout: sgHSF2, 10000 nM
[15] = sgRNA knockout: sgKEAP1, 100 nM
[16] = sgRNA knockout: sgKEAP1, 1000 nM
[17] = sgRNA knockout: sgKEAP1, 10000 nM
[18] = sgRNA knockout: sgNFE2L2, 10 nM
[19] = sgRNA knockout: sgNFE2L2, 100 nM
[20] = sgRNA knockout: sgNFE2L2, 1000 nM
[21] = sgRNA knockout: sgNFE2L2, 10000 nM
[22] = sgRNA knockout: sgSLC35F2, 10 nM
[23] = sgRNA knockout: sgSLC35F2, 100 nM
[24] = sgRNA knockout: sgSLC35F2, 1000 nM
[25] = sgRNA knockout: sgSLC35F2, 10000 nM
[26] = sgRNA knockout: sgXBP1, 1000 nM
[27] = sgRNA knockout: sgXBP1, 10000 nM

Compound: FC(F)c1nc2ccccc2n1-c1nc(N2CCOCC2)nc(N2CCOCC2)n1 [ZSTK474]
- relative cell number (sgRNA knockout: sgATF3, 10 nM): 81.7 ± 8.2
- relative cell number (sgRNA knockout: sgATF3, 100 nM): 98.4 ± 26
- relative cell number [1]: 68.5 ± 15
- relative cell number [2]: 44.8 ± 4.4
- relative cell number (sgRNA knockout: sgATF4, 10 nM): 95.5 ± 12
- relative cell number (sgRNA knockout: sgATF4, 100 nM): 111 ± 22
- relative cell number [3]: 80.97 ± 0.71
- relative cell number [4]: 53.5 ± 9.4
- relative cell number (sgRNA knockout: sgATF6, 10 nM): 84.69 ± 0.76
- relative cell number (sgRNA knockout: sgATF6, 100 nM): 80.2 ± 0.83
- relative cell number [5]: 67.3 ± 26
- relative cell number [6]: 49.4 ± 5.2
- relative cell number (sgRNA knockout: sgATG7, 10 nM): 86.1 ± 23
- relative cell number (sgRNA knockout: sgATG7, 100 nM): 88.8 ± 18
- relative cell number [7]: 75.4 ± 14
- relative cell number [8]: 47.5 ± 15
- relative cell number (sgRNA knockout: sgERN1, 10 nM): 88.7 ± 10
- relative cell number (sgRNA knockout: sgERN1, 100 nM): 79 ± 3.9
- relative cell number [9]: 74.5 ± 8.1
- relative cell number [10]: 40.7 ± 5.9
- relative cell number (sgRNA knockout: sgHSF1, 10 nM): 103 ± 16
- relative cell number (sgRNA knockout: sgHSF1, 100 nM): 88.9 ± 9.9
- relative cell number [11]: 84.2 ± 4.2
- relative cell number [12]: 46.3 ± 4.8
- relative cell number (sgRNA knockout: sgHSF2, 10 nM): 85.2 ± 14
- relative cell number (sgRNA knockout: sgHSF2, 100 nM): 94 ± 8.8
- relative cell number [13]: 73.9 ± 6.5
- relative cell number [14]: 46.5 ± 9.3
- relative cell number (sgRNA knockout: sgKEAP1, 10 nM): 94.6 ± 10
- relative cell number [15]: 88 ± 26
- relative cell number [16]: 65.6 ± 3.1
- relative cell number [17]: 51.8 ± 4.4
- relative cell number [18]: 83.8 ± 22
- relative cell number [19]: 106 ± 13
- relative cell number [20]: 75.81 ± 0.58
- relative cell number [21]: 47.5 ± 6.1
- relative cell number [22]: 91 ± 11
- relative cell number [23]: 87.4 ± 1.4
- relative cell number [24]: 68.7 ± 19
- relative cell number [25]: 51.6 ± 13
- relative cell number (sgRNA knockout: sgXBP1, 10 nM): 85.8 ± 15
- relative cell number (sgRNA knockout: sgXBP1, 100 nM): 92.3 ± 22
- relative cell number [26]: 78.9 ± 11
- relative cell number [27]: 42.4 ± 8.7

Compound: COc1cccc2cc(-c3nc([C@H]4CC[C@H](C(=O)O)CC4)n4ncnc(N)c34)[nH]c12 [OSI027]
- relative cell number (sgRNA knockout: sgATF3, 10 nM): 102 ± 3.5
- relative cell number (sgRNA knockout: sgATF3, 100 nM): 107 ± 32
- relative cell number [1]: 76.6 ± 4.9
- relative cell number [2]: 45.77 ± 0.2
- relative cell number (sgRNA knockout: sgATF4, 10 nM): 94.1 ± 17
- relative cell number (sgRNA knockout: sgATF4, 100 nM): 130 ± 35
- relative cell number [3]: 78.3 ± 9.5
- relative cell number [4]: 55.7 ± 2.1
- relative cell number (sgRNA knockout: sgATF6, 10 nM): 92.6 ± 5.5
- relative cell number (sgRNA knockout: sgATF6, 100 nM): 117 ± 4.6
- relative cell number [5]: 77.1 ± 4.3
- relative cell number [6]: 52.27 ± 0.46
- relative cell number (sgRNA knockout: sgATG7, 10 nM): 98.5 ± 1.5
- relative cell number (sgRNA knockout: sgATG7, 100 nM): 109 ± 28
- relative cell number [7]: 82 ± 9.4
- relative cell number [8]: 56.2 ± 6
- relative cell number (sgRNA knockout: sgERN1, 10 nM): 93.1 ± 21
- relative cell number (sgRNA knockout: sgERN1, 100 nM): 103 ± 24
- relative cell number [9]: 86.7 ± 1.1
- relative cell number [10]: 43.5 ± 1.2
- relative cell number (sgRNA knockout: sgHSF1, 10 nM): 98.1 ± 15
- relative cell number (sgRNA knockout: sgHSF1, 100 nM): 108 ± 21
- relative cell number [11]: 76.3 ± 7.5
- relative cell number [12]: 49.4 ± 2.9
- relative cell number (sgRNA knockout: sgHSF2, 10 nM): 96.3 ± 11
- relative cell number (sgRNA knockout: sgHSF2, 100 nM): 116 ± 28
- relative cell number [13]: 86.4 ± 8.5
- relative cell number [14]: 50.1 ± 1
- relative cell number (sgRNA knockout: sgKEAP1, 10 nM): 101 ± 12
- relative cell number [15]: 108 ± 12
- relative cell number [16]: 85.2 ± 4
- relative cell number [17]: 53 ± 8.2
- relative cell number [18]: 101 ± 4.1
- relative cell number [19]: 123 ± 15
- relative cell number [20]: 94.2 ± 14
- relative cell number [21]: 55.9 ± 0.79
- relative cell number [22]: 90.85 ± 0.59
- relative cell number [23]: 104 ± 27
- relative cell number [24]: 87.3 ± 11
- relative cell number [25]: 46.4 ± 2.6
- relative cell number (sgRNA knockout: sgXBP1, 10 nM): 104 ± 9.2
- relative cell number (sgRNA knockout: sgXBP1, 100 nM): 114 ± 34
- relative cell number [26]: 76.4 ± 7.4
- relative cell number [27]: 47 ± 1.1

Compound: Cc1ccc(NC(=O)c2ccc(CN3CCN(C)CC3)cc2)cc1Nc1nc(-c2cccnc2)cs1 [Masitinib]
- relative cell number (sgRNA knockout: sgATF3, 10 nM): 91.1 ± 11
- relative cell number (sgRNA knockout: sgATF3, 100 nM): 82.6 ± 13
- relative cell number [1]: 87.7 ± 21
- relative cell number [2]: 77.4 ± 16
- relative cell number (sgRNA knockout: sgATF4, 10 nM): 97.4 ± 6.1
- relative cell number (sgRNA knockout: sgATF4, 100 nM): 98.8 ± 10
- relative cell number [3]: 84.3 ± 14
- relative cell number [4]: 86.1 ± 8.3
- relative cell number (sgRNA knockout: sgATF6, 10 nM): 103 ± 16
- relative cell number (sgRNA knockout: sgATF6, 100 nM): 90.6 ± 19
- relative cell number [5]: 88.8 ± 14
- relative cell number [6]: 67.8 ± 6.8
- relative cell number (sgRNA knockout: sgATG7, 10 nM): 106 ± 9.8
- relative cell number (sgRNA knockout: sgATG7, 100 nM): 98 ± 7.3
- relative cell number [7]: 88.8 ± 8.8
- relative cell number [8]: 99.3 ± 5.8
- relative cell number (sgRNA knockout: sgERN1, 10 nM): 100 ± 9.1
- relative cell number (sgRNA knockout: sgERN1, 100 nM): 90.1 ± 13
- relative cell number [9]: 92.4 ± 13
- relative cell number [10]: 103 ± 7.3
- relative cell number (sgRNA knockout: sgHSF1, 10 nM): 106 ± 9.1
- relative cell number (sgRNA knockout: sgHSF1, 100 nM): 93.3 ± 35
- relative cell number [11]: 87.7 ± 9.6
- relative cell number [12]: 89.1 ± 4.4
- relative cell number (sgRNA knockout: sgHSF2, 10 nM): 88.299 ± 0.044
- relative cell number (sgRNA knockout: sgHSF2, 100 nM): 86.9 ± 15
- relative cell number [13]: 82.3 ± 9.9
- relative cell number [14]: 104 ± 1.1
- relative cell number (sgRNA knockout: sgKEAP1, 10 nM): 90.8 ± 8.8
- relative cell number [15]: 94.6 ± 2.9
- relative cell number [16]: 83.2 ± 1.6
- relative cell number [17]: 90.1 ± 6.5
- relative cell number [18]: 91.9 ± 4.7
- relative cell number [19]: 92 ± 20
- relative cell number [20]: 85.8 ± 27
- relative cell number [21]: 81.1 ± 6
- relative cell number [22]: 91.9 ± 1.1
- relative cell number [23]: 87.4 ± 12
- relative cell number [24]: 90.9 ± 15
- relative cell number [25]: 92.1 ± 2.1
- relative cell number (sgRNA knockout: sgXBP1, 10 nM): 108 ± 28
- relative cell number (sgRNA knockout: sgXBP1, 100 nM): 94.8 ± 20
- relative cell number [26]: 99.3 ± 19
- relative cell number [27]: 97.7 ± 7.5
